PubChem BioAssay AID1259327 – Drosophila RNAi Screening Center – 2017

- Aim: 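Knock-downs altering cellular ATP with no metal added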
- Cell system: Drosophila S2R+ cells
- Knock-down reagent: long dsRNA against Drosophila genes
- Time to read-out: 5 days (water added on day 4, read one day later)
- Challenge: water added as vehicle, no metal, one day before read-out
- Measured: 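Luciferase ATP signal per well, normalised to plate mean, duplicate average converted to z-score across plates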
- Scale: ATP z-score: higher = more total ATP than typical wells; ATP luminescence: higher = more total ATP
- Rule for the call: 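Called active when the ATP z-score exceeds 1.5 or falls below -1.5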
- Meaning of the calls: active = hit: ATP up or down; inactive = no clear ATP change
Shown is a random part of about 3,100 reagents. 378 of them (12%) count as active. 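Hits include both directions; z-score sign shows ATP rise or fall; raw luminescence values are not plate-normalised.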 A plus sign joins genes that one reagent is predicted to hit. Not given: the amount of reagent.

The first 4 entries, ahead of the listing:
no.	Gene	dsRNA	ATP z-score, duplicate mean	ATP luminescence, replicate 1 (RLU)	ATP luminescence, replicate 2 (RLU)	outcome
1	pyx (pyrexia)	DRSC08511	0.18	6.45e5	8.87e5	inactive
2	pyx (pyrexia)	DRSC28167	1.08	7.87e5	7.90e5	inactive
3	Gr23a (Gustatory receptor 23a)	DRSC00410	0.715	7.39e5	8.19e5	inactive
4	Gr23a (Gustatory receptor 23a)	DRSC27488	-0.37	8.94e5	1.02e6	inactive

The list itself, from the first entry:
no.	Gene	dsRNA	ATP z-score, duplicate mean	ATP luminescence, replicate 1 (RLU)	ATP luminescence, replicate 2 (RLU)	outcome
1	pyx (pyrexia)	DRSC08511	0.18	6.45e5	8.87e5	inactive
2	pyx (pyrexia)	DRSC28167	1.08	7.87e5	7.90e5	inactive
3	Gr23a (Gustatory receptor 23a)	DRSC00410	0.715	7.39e5	8.19e5	inactive
4	Gr23a (Gustatory receptor 23a)	DRSC27488	-0.37	8.94e5	1.02e6	inactive
5	sNPF-R (short neuropeptide F receptor)	DRSC10836	0.531	9.87e5	9.44e5	inactive
6	rg (rugose)	DRSC17726	-0.6	6.64e5	6.24e5	inactive
7	rg (rugose)	DRSC18049	-1.26	6.29e5	7.48e5	inactive
8	rg (rugose)	DRSC29144	-0.421	8.54e5	6.98e5	inactive
9	rg (rugose)	DRSC36613	-1.67	4.06e5	4.72e5	active
10	rg (rugose)	DRSC36614	-1.97	4.34e5	3.90e5	active
11	CG6763	DRSC16110	-0.279	2.79e5	7.50e5	inactive
12	CG6763	DRSC24299	3.05	1.05e6	1.41e6	active
13	Osi2 (Osiris 2)	DRSC12174	0.335	9.50e5	9.30e5	inactive
14	Osi2 (Osiris 2)	DRSC28374	-1.3	7.09e5	6.28e5	inactive
15	SPR (Sex peptide receptor)	DRSC17886	1.86	5.84e5	7.10e5	active
16	SPR (Sex peptide receptor)	DRSC21557	0.436	5.47e5	6.87e5	inactive
17	Rdl (Resistant to dieldrin)	DRSC11264	0.465	7.80e5	7.81e5	inactive
18	Rdl (Resistant to dieldrin)	DRSC27696	0.709	9.77e5	8.73e5	inactive
19	CG33253	DRSC19547	-0.336	6.00e5	8.19e5	inactive
20	CG33253	DRSC39701	-0.679	3.82e5	4.57e5	inactive
21	CG1632	DRSC17558	-0.188	5.96e5	6.09e5	inactive
22	CG1632	DRSC18110	1.4	7.41e5	7.85e5	inactive
23	Culd (CUB and LDLa domain)	DRSC10262	-0.0758	7.08e5	7.39e5	inactive
24	Culd (CUB and LDLa domain)	DRSC39624	-1.3	3.61e5	3.93e5	inactive
25	subdued	DRSC15137	0.0566	7.29e5	6.95e5	inactive
26	subdued	DRSC39505	1.07	5.63e5	4.86e5	inactive
27	CG42826	DRSC10682	-0.112	9.14e5	8.50e5	inactive
28	CG42514 + CG43373	DRSC26599	0.102	8.92e5	1.01e6	inactive
29	Gr64b + Gr64c	DRSC08444	-0.2	9.14e5	8.28e5	inactive
30	Gr64b + Gr64c	DRSC08445	0.745	1.01e6	9.75e5	inactive
31	Gr64b + Gr64c	DRSC27568	-0.913	8.60e5	9.86e5	inactive
32	robo2 (roundabout 2)	DRSC00377	-0.116	7.07e5	6.81e5	inactive
33	robo2 (roundabout 2)	DRSC00686	0.918	7.72e5	6.33e5	inactive
34	Ent1 (Equilibrative nucleoside transporter 1)	DRSC00330	-1.7	3.52e5	3.69e5	active
35	CG4459	DRSC15582	-0.302	2.92e5	7.14e5	inactive
36	Osi4 (Osiris 4)	DRSC12134	0.506	1.02e6	9.03e5	inactive
37	Osi4 (Osiris 4)	DRSC39716	-0.788	3.89e5	4.35e5	inactive
38	spi (spitz)	DRSC03618	-0.0476	6.99e5	7.42e5	inactive
39	spi (spitz)	DRSC29414	-0.0999	8.71e5	7.56e5	inactive
40	Mgat2	DRSC16347	-0.207	7.02e5	6.67e5	inactive
41	Mgat2	DRSC29105	1.77	1.13e6	9.52e5	active
42	Gr32a (Gustatory receptor 32a)	DRSC02400	-0.192	7.18e5	6.93e5	inactive
43	Gr32a (Gustatory receptor 32a)	DRSC39450	-1.31	3.59e5	3.73e5	inactive
44	Tsp42Eo (Tetraspanin 42Eo)	DRSC06184	0.139	6.48e5	6.16e5	inactive
45	Gr10a (Gustatory receptor 10a)	DRSC22792	0.997	6.05e5	7.24e5	inactive
46	Gr10a (Gustatory receptor 10a)	DRSC26071	1.44	9.92e5	1.07e6	inactive
47	PGRP-LB (Peptidoglycan recognition protein LB)	DRSC14926	0.76	7.69e5	7.98e5	inactive
48	PGRP-LB (Peptidoglycan recognition protein LB)	DRSC39813	0.716	5.37e5	5.21e5	inactive
49	VhaM9.7-c (Vacuolar H[+] ATPase M9.7 subunit c)	DRSC08204	-2.07	4.95e5	5.25e5	active
50	VhaM9.7-c (Vacuolar H[+] ATPase M9.7 subunit c)	DRSC30083	-0.617	5.43e5	5.11e5	inactive
51	CG4615	DRSC17491	-1.19	5.24e5	4.99e5	inactive
52	CG4615	DRSC18376	1.32	8.44e5	8.40e5	inactive
53	CG4615	DRSC26722	-1.04	9.04e5	9.20e5	inactive
54	dpy (dumpy)	DRSC00233	-0.00221	7.36e5	7.48e5	inactive
55	dpy (dumpy)	DRSC00234	0.109	7.28e5	7.82e5	inactive
56	dpy (dumpy)	DRSC00472	0.28	7.73e5	7.39e5	inactive
57	CG45067 + CG45066	DRSC08414	0.0892	8.99e5	9.15e5	inactive
58	CG45067 + CG45066	DRSC27186	-1.1	9.20e5	9.68e5	inactive
59	Snmp1 (Sensory neuron membrane protein 1)	DRSC16168	0.238	2.93e5	8.29e5	inactive
60	Nrx-IV (Neurexin IV)	DRSC11238	-0.927	6.88e5	5.74e5	inactive
61	Nrx-IV (Neurexin IV)	DRSC39823	-1.09	3.96e5	4.09e5	inactive
62	schlank	DRSC18102	-1.48	4.76e5	6.24e5	inactive
63	CG17075	DRSC00483	-1.52	3.56e5	3.91e5	active
64	CG17075	DRSC26505	-1.2	9.35e5	1.04e6	inactive
65	Or94b (Odorant receptor 94b)	DRSC16773	1.39	3.49e5	9.43e5	inactive
66	Or94b (Odorant receptor 94b)	DRSC27188	1.93	8.77e5	1.19e6	active
67	CG14053	DRSC17908	0.242	6.49e5	7.23e5	inactive
68	CG14053	DRSC39512	0.243	4.50e5	4.86e5	inactive
69	Apl (Apollo)	DRSC10350	-1.03	8.10e5	7.13e5	inactive
70	CG10345	DRSC14138	-0.138	7.13e5	6.71e5	inactive
71	sut4 (sugar transporter 4)	DRSC07703	0.691	7.16e5	8.96e5	inactive
72	sut4 (sugar transporter 4)	DRSC24885	0.707	8.78e5	9.99e5	inactive
73	Cad88C (Cadherin 88C)	DRSC15486	-0.392	2.74e5	7.39e5	inactive
74	Cad88C (Cadherin 88C)	DRSC26126	0.0842	8.57e5	8.64e5	inactive
75	CG5715	DRSC15860	0.547	3.19e5	8.34e5	inactive
76	CG5715	DRSC26011	-0.691	7.39e5	7.90e5	inactive
77	fusl (fuseless)	DRSC02351	-0.552	3.54e5	5.32e5	inactive
78	fusl (fuseless)	DRSC28283	0.506	8.96e5	8.72e5	inactive
79	CG12783	DRSC14538	0.177	2.98e5	8.03e5	inactive
80	por (porcupine)	DRSC29877	1.93	7.54e5	7.33e5	active
81	por (porcupine)	DRSC39827	1.37	5.42e5	6.10e5	inactive
82	Or85c (Odorant receptor 85c)	DRSC16766	-0.37	2.95e5	6.91e5	inactive
83	Or85c (Odorant receptor 85c)	DRSC39833	-0.617	3.45e5	5.33e5	inactive
84	Or22a (Odorant receptor 22a)	DRSC26009	-0.324	8.69e5	7.50e5	inactive
85	CG13575	DRSC22851	0.816	7.08e5	5.89e5	inactive
86	CG13575	DRSC39524	-0.12	5.31e5	3.63e5	inactive
87	Gr64d + Gr64e	DRSC28375	-1.09	7.94e5	5.99e5	inactive
88	Gr64d + Gr64e	DRSC39759	-0.856	3.93e5	4.21e5	inactive
89	Gr64d + Gr64e	DRSC39760	-0.251	4.52e5	4.44e5	inactive
